The values that follow come from US6695968B2, “Removal of water solubilized organics” (Baker Hughes Incorporated, priority 2001, dated 2004).

SMILES strings stand for the structures. Read-outs that look alike come from different tables or passages of the source.

The conditions of the data set: pH 6.9.
The mark [1] stands for this setting: HOAcOH 210 ppm, Cationic REB 2.5 ppm, Anionic Polymer 3.5 ppm.
Setting [2] is: HOAcOH 210 ppm, Cationic REB 3.0 ppm, Anionic Polymer 3.0 ppm.
Where [3] appears, read: HOAcOH 305 ppm, Cationic REB 2.0 ppm, Anionic Polymer 4.0 ppm.

For `O=C(O)CO` [HOAcOH (inv.), hydroxyacetic (glycolic) acid], the WSO was 19 ppm (HOAcOH 175 ppm, Cationic REB 3.0 ppm, Anionic Polymer 3.0 ppm, 27 ppm without HOAcOH); 13 ppm under setting [1]; 13 ppm under setting [2]; 9 ppm under setting [3]. Besides, the “O&G” value is reported as 25 ppm (HOAcOH 175 ppm, Cationic REB 3.0 ppm, Anionic Polymer 3.0 ppm, 34 ppm without HOAcOH); 20 ppm under setting [1]; 26 ppm under setting [2]; 16 ppm under setting [3].
